Results as given in paper PMC12270237.

Biological target: T1, MICU3-FLAG (UniProt Q86XE3)
T1 sequence: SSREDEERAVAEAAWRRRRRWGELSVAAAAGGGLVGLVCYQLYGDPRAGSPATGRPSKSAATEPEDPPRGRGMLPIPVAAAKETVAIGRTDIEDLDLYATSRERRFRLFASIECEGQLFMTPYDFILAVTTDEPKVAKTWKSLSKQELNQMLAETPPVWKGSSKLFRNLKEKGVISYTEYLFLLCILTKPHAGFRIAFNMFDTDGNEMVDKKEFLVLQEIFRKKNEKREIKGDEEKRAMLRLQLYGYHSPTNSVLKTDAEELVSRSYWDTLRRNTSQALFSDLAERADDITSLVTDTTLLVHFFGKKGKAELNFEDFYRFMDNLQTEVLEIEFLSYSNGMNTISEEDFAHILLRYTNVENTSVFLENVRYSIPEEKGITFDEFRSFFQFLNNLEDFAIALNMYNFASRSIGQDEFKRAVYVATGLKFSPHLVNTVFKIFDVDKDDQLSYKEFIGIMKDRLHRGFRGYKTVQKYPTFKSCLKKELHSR
Experiment: co-IP; transfected HEK 293T cells (Micu1-/-, Mcu-/- or WT; some treated with ionomycin or BAPTA-AM 12 h before collection); cells treated with 0.2 mM DSP, lysed in Pierce IP lysis buffer; anti-HA, -Myc or -FLAG beads overnight at 4°C; western blot

Substance: MICU1-HA
- binding: binds

These are yes or no findings as the source states them, for the method shown. Binding seen in cells or lysates may run through a third protein. Binding calls can cover weak binding; strength is not graded here. Tags and fused reporters may be left off the sequences shown.
